PubChem BioAssay AID1224830 – NIAID | 2016

Screen: 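Host factors that control LPS-induced TNF expression in human macrophages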 (primary screen)
Cells: human THP-1 monocytic leukaemia cells, TNF dual-luciferase reporter clone, PMA-differentiated to macrophage-like cells
Reagent: siRNA pool against human genes, 50 nM
Timing: LPS for 4 h, given about 3 days after siRNA transfection
Challenge: bacterial LPS (TLR4 ligand), 10 ng/ml
Measurement: 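TNF firefly reporter luminescence divided by renilla, normalised to the plate median, then turned into a robust z-score for each replicate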
Scale: TNF reporter robust z-score: higher = stronger TNF reporter response to LPS
Rule for the call: 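a well is active when its z-score exceeds 2.8 or falls below -1.5; control wells carry no call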
The whole screen tested about 18,000 reagents; below is an unselected part. About 2,900 of them (16%) count as active. 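Calls are made per well; low scores hint the gene aids the LPS response, high scores that it dampens it.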 Repeated entries: four replicate wells of each siRNA pool. Reagent sequences are not shown.

After knock-down of PPIP5K2 the results were TNF reporter robust z-score -0.8; inactive. Depletion of PPIP5K2 resulted in: TNF reporter robust z-score -0.13; inactive. PPIP5K2 scored TNF reporter robust z-score -0.24; inactive. For PPIP5K2 the deposit lists TNF reporter robust z-score 0.21; inactive. With knock-down of TTC22 the results were TNF reporter robust z-score 0.43; inactive. Silencing of TTC22 resulted in: TNF reporter robust z-score 1.84; inactive.

Knock-down of TTC22 resulted in: TNF reporter robust z-score 0.22; inactive. With knock-down of TTC22 the results were TNF reporter robust z-score 1.6; inactive. With knock-down of LINC03124, the screen gave TNF reporter robust z-score 0.1; inactive. LINC03124 gave TNF reporter robust z-score -0.41; inactive. LINC03124 gave TNF reporter robust z-score -0.57; inactive. Depletion of LINC03124 gave: TNF reporter robust z-score 0.02; inactive.

After knock-down of FSCN3, the screen gave TNF reporter robust z-score -1.81; active. For FSCN3 the deposit lists TNF reporter robust z-score -1.44; inactive. With knock-down of FSCN3, the screen gave TNF reporter robust z-score -1.53; active. Depletion of FSCN3 gave: TNF reporter robust z-score -0.85; inactive. Against UNC13D, the values are TNF reporter robust z-score -0.14; inactive. Depletion of UNC13D gave: TNF reporter robust z-score 0.3; inactive.

UNC13D showed TNF reporter robust z-score 0.58; inactive. With knock-down of UNC13D, the record shows TNF reporter robust z-score -0.2; inactive. After knock-down of SBF1, the screen gave TNF reporter robust z-score 0.58; inactive. With knock-down of SBF1, the screen gave TNF reporter robust z-score 0.03; inactive. After knock-down of SBF1, the screen gave TNF reporter robust z-score 0.32; inactive. SBF1 showed TNF reporter robust z-score 0.05; inactive.

Depletion of SIRPD resulted in: TNF reporter robust z-score 3.26; active. For SIRPD, the values are TNF reporter robust z-score 4.82; active. For SIRPD the deposit lists TNF reporter robust z-score 4.97; active. SIRPD scored TNF reporter robust z-score 5.74; active. With knock-down of TSPYL5, the screen gave TNF reporter robust z-score 0.01; inactive. For TSPYL5 the deposit lists TNF reporter robust z-score 1.89; inactive.

TSPYL5 showed TNF reporter robust z-score -0.42; inactive. TSPYL5 gave TNF reporter robust z-score -0.54; inactive. ACAD9 scored TNF reporter robust z-score -0.43; inactive. Knock-down of ACAD9 came out at: TNF reporter robust z-score -0.71; inactive. ACAD9 showed TNF reporter robust z-score -0.39; inactive. After knock-down of ACAD9 the results were TNF reporter robust z-score -0.34; inactive.

Silencing of PGAM1 gave: TNF reporter robust z-score 0.43; inactive. With knock-down of PGAM1, the record shows TNF reporter robust z-score 1.58; inactive. After knock-down of PGAM1, the record shows TNF reporter robust z-score -0.47; inactive. PGAM1 scored TNF reporter robust z-score 0.48; inactive. MRPS28 scored TNF reporter robust z-score -0.05; inactive. With knock-down of MRPS28, the record shows TNF reporter robust z-score -0.46; inactive.

MRPS28 scored TNF reporter robust z-score 0.08; inactive. MRPS28 scored TNF reporter robust z-score -0.5; inactive. CENPP scored TNF reporter robust z-score -1.65; active. Depletion of CENPP gave: TNF reporter robust z-score 0.11; inactive. CENPP showed TNF reporter robust z-score -0.48; inactive. With knock-down of CENPP, the record shows TNF reporter robust z-score -1.02; inactive.
